Results are given in words; binding and its absence hold for the method and conditions named. Binding seen in cells or lysates may run through a third protein. These calls come from enrichment with a bait or labelling near it, and not all partners need be listed. Sequences can lack the tags named with a protein.
Each substance was assayed against T1, Ref2, TAPS-tagged (native CPF/APT subunit) (yeast) (UniProt P42073) (assay: affinity purification with mass spectrometry; native CPF/APT purified by a tandem affinity purification tag from a yeast strain containing TAPS-tagged Ref2; Coomassie SDS-PAGE; composition analysed by noncovalent nanoESI-MS).
T1 sequence: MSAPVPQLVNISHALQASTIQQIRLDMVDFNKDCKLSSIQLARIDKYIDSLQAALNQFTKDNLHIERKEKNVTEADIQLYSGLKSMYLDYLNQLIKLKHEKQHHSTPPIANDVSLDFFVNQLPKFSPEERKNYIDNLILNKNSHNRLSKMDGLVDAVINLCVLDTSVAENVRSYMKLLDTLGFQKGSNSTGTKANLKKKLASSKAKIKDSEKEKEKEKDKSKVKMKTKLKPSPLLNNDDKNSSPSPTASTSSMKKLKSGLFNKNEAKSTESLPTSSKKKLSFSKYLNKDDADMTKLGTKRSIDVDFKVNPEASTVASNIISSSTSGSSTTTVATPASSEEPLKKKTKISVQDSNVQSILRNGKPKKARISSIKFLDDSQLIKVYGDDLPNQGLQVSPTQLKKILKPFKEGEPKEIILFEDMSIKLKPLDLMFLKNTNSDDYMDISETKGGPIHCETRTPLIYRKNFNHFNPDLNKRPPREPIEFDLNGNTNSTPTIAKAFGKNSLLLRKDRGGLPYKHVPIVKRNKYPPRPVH

Protein sequences, listed by entry. Tags and fused reporters are not part of them.
UniProt P32598: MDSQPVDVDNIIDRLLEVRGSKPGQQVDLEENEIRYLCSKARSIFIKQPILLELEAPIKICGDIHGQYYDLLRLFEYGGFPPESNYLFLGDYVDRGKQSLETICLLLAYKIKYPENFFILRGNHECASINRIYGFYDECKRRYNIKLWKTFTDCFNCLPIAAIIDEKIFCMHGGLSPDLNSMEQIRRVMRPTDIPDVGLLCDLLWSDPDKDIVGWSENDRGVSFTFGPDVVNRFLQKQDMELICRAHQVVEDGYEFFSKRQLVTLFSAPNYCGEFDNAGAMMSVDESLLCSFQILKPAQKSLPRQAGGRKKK
UniProt P29468: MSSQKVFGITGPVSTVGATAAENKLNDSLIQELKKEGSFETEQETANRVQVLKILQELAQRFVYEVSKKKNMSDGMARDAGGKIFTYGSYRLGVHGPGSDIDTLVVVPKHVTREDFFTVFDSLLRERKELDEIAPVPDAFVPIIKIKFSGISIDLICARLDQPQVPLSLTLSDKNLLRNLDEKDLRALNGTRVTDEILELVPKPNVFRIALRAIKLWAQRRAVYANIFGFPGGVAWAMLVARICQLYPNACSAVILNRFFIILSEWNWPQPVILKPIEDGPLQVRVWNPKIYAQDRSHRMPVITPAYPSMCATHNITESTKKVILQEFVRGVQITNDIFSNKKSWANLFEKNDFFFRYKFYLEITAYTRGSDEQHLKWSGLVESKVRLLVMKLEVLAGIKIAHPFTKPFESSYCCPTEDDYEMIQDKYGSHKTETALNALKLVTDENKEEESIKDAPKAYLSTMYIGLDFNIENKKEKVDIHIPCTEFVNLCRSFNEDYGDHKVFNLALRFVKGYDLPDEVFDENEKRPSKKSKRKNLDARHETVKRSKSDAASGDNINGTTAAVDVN
UniProt P53538: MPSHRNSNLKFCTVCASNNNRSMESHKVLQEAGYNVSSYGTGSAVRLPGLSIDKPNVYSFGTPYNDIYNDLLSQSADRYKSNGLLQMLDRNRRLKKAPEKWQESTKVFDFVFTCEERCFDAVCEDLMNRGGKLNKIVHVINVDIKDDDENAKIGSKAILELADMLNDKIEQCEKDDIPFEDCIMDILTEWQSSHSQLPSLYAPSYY

binding, binds:
Glc7 (native CPF/APT subunit) (from UniProt P32598 1-312) (enzyme)
Pap1 (native CPF subunit) (from UniProt P29468 1-568) (enzyme)
Ssu72 (native CPF/APT subunit) (from UniProt P53538 1-206) (enzyme)
